Reference: patent publication US20220213227A1
These are yes or no findings as the source states them, for the method shown. Some binding calls cover weakened binding; strength is not graded here. Sequences can lack the tags named with a protein.

Experiments:
[1] = biological target: cynomolgus monkey CD3 epsilon 1-26_Fc fusion protein (cynomolgus monkey); experiment: alanine scan of scFv-Fc; binding assay not named there (candidates were assessed by SPR on CD3 epsilon 1-26_Fc)
[2] = biological target: human CD3 epsilon 1-26_Fc fusion protein (human); experiment: as above

binding [1] | binding [2] | Binder
binds | binds | SP34 H1L21 scFv-Fc with T29A in VL21 (Fc fusion, name in Kabat numbering) VH: EVQLVESGGGLVQPGGSLRLSCAASGFTFNTYAMNWVRQAPGKGLEWVARIRSKYNNYATYYADSVKGRFTISRDDSKNTLYLQMNSLRAEDTAVYYCVRHGNFGNSYVSWFAYWGQGTTVTVSS VL: EIVVTQSPATLSVSPGERATLSCRSSTGAVTASNYANWVQEKPGQAFRGLIGGANKRAPGVPARFSGSLSGDEATLTISSLQSEDFAVYYCALWYSNLWVFGQGTKLEIK
binds | binds | SP34 H1L21 scFv-Fc with S30A in VL21 (Fc fusion, name in Kabat numbering) VH: EVQLVESGGGLVQPGGSLRLSCAASGFTFNTYAMNWVRQAPGKGLEWVARIRSKYNNYATYYADSVKGRFTISRDDSKNTLYLQMNSLRAEDTAVYYCVRHGNFGNSYVSWFAYWGQGTTVTVSS VL: EIVVTQSPATLSVSPGERATLSCRSSTGAVTTANYANWVQEKPGQAFRGLIGGANKRAPGVPARFSGSLSGDEATLTISSLQSEDFAVYYCALWYSNLWVFGQGTKLEIK
